# Results deposited as PubChem BioAssay AID1259308 (NCATS, 2017).
# Purpose: 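Candidate targets for better recombinant protein yield in mammalian cells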 (primary screen)
# Cells: human HEK293 embryonic kidney cells stably expressing firefly luciferase (HEK-CMV-Luc2-Hygro)
# Reagent: single siRNA against human genes, 0.8 pmol siRNA per well
# Duration: 72 h
# Measured: 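Reporter luminescence and viable-cell signal on separate replicate plates, given as percent of non-targeting control and median/MAD z-scores, plus per-cell luciferase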
# Reading the numbers: total luciferase, z-score and total luciferase, % of control: higher = more reporter protein produced; luciferase per cell, z-score: higher = more reporter output per viable cell
# Active means: 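Active when the median/MAD z-score for overall luciferase is greater than 3; a gene was taken forward for validation with new siRNAs if at least two of its three siRNAs passed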
# Calls: active = raised luciferase; inactive = no rise
# This is one part, drawn at random, of about 59,000 reagents tested. About 1,510 of them (2.6%) were called active. 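Calls use total luciferase alone and ignore viability, so some active siRNAs may act by altering cell number.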 Unmarked entries are inactive. The numbers tell different reagents against one gene apart. Further read-outs or replicates are left out here.
gene,reagent,"total luciferase, z-score","total luciferase, % of control","luciferase per cell, z-score"
SMPD2 (GeneID 6610),1,-0.816,65.7,-1.27
SMPD2 (GeneID 6610),2,-0.092,80.1,-0.88
SMPD2 (GeneID 6610),3,-2.49,32.3,-1.45
RPS26P10 (GeneID 401470),1,-2.78,26.5,-2.4
RPS26P10 (GeneID 401470),2,-3.55,11.2,-4.57
RPS26P10 (GeneID 401470),3,0.638,94.6,0.922
TCN2 (GeneID 6948),1,0.974,101,0.493
TCN2 (GeneID 6948),2,-0.928,63.4,2.01
TCN2 (GeneID 6948),3,-1.28,56.5,-2.21
PRR5L (GeneID 79899),1,1.39,109,0.803
PRR5L (GeneID 79899),2,-0.358,74.8,0.107
PRR5L (GeneID 79899),3,-1.26,56.8,-1.83
HNRNPUL2 (GeneID 221092),1,0.104,84,-0.0573
HNRNPUL2 (GeneID 221092),2,0.377,89.4,0.528
HNRNPUL2 (GeneID 221092),3,0.485,91.5,0.122
UBE2E3 (GeneID 10477),1,-0.589,70.2,-0.422
UBE2E3 (GeneID 10477),2,-0.412,73.7,-0.0557
UBE2E3 (GeneID 10477),3,-0.079,80.3,-0.822
NRARP (GeneID 441478),1,-0.462,72.7,-0.0872
NRARP (GeneID 441478),2,-0.327,75.4,-0.125
NRARP (GeneID 441478),3,1.11,104,0.665
ENKD1 (GeneID 84080),1,0.811,98,0.323
ENKD1 (GeneID 84080),2,-1.22,57.6,-1.25
ENKD1 (GeneID 84080),3,-1,62,-1.4
CCDC136 (GeneID 64753),1,1.86,119,2.2
CCDC136 (GeneID 64753),2,-0.69,68.2,-0.689
CCDC136 (GeneID 64753),3,-0.567,70.6,-0.827
OR2AK2 (GeneID 391191),1,-0.761,66.7,-0.0385
OR2AK2 (GeneID 391191),2,-0.227,77.4,-0.117
OR2AK2 (GeneID 391191),3,-0.142,79.1,0.397
LINC02913 (GeneID 414318),1,0.599,93.8,0.292
LINC02913 (GeneID 414318),2,0.476,91.4,0.386
LINC02913 (GeneID 414318),3,0.215,86.2,0.552
HAPSTR1 (GeneID 29035),1,2.32,128,1.78
HAPSTR1 (GeneID 29035),2,1.34,109,1.16
HAPSTR1 (GeneID 29035),3,1.01,102,0.417
TNRC6C (GeneID 57690),1,0.523,92.3,-0.177
TNRC6C (GeneID 57690),2,1.55,113,1.5
TNRC6C (GeneID 57690),3,0.182,85.5,-0.683
FAH (GeneID 2184),1,0.105,84,0.45
FAH (GeneID 2184),2,2.8,138,1.79
FAH (GeneID 2184),3,-0.774,66.5,1.16
NXPH1 (GeneID 30010),1,-0.849,65,-0.682
NXPH1 (GeneID 30010),2,0.171,85.3,0.444
NXPH1 (GeneID 30010),3,-0.116,79.6,-0.947
PTK6 (GeneID 5753),1,-0.0433,81,0.161
PTK6 (GeneID 5753),2,0.981,101,1.18
PTK6 (GeneID 5753),3,0.844,98.7,1.19

6 entries from above, reformatted:
gene | reagent | total luciferase, z-score | total luciferase, % of control | luciferase per cell, z-score
PRR5L (GeneID 79899) | 2 | -0.358 | 74.8 | 0.107
PRR5L (GeneID 79899) | 3 | -1.26 | 56.8 | -1.83
HNRNPUL2 (GeneID 221092) | 1 | 0.104 | 84 | -0.0573
HNRNPUL2 (GeneID 221092) | 2 | 0.377 | 89.4 | 0.528
HNRNPUL2 (GeneID 221092) | 3 | 0.485 | 91.5 | 0.122
UBE2E3 (GeneID 10477) | 1 | -0.589 | 70.2 | -0.422

The list goes on:
gene,reagent,"total luciferase, z-score","total luciferase, % of control","luciferase per cell, z-score"
MRPS18B (GeneID 28973),1,-0.117,79.6,-0.142
MRPS18B (GeneID 28973),2,0.303,87.9,0.444
MRPS18B (GeneID 28973),3,1.61,114,0.5
MYCBP2 (GeneID 23077),1,1,102,0.904
MYCBP2 (GeneID 23077),2,0.246,86.8,0.0515
MYCBP2 (GeneID 23077),3,-0.164,78.6,-0.532
PRDX4 (GeneID 10549),1,-1.23,57.5,-1.49
PRDX4 (GeneID 10549),2,0.00727,82,-0.397
PRDX4 (GeneID 10549),3,0.185,85.6,0.299
MAU2 (GeneID 23383),1,4.47 (active),171,3.14
MAU2 (GeneID 23383),2,-0.37,74.5,1.38
MAU2 (GeneID 23383),3,0.389,89.6,1.04
OR8D4 (GeneID 338662),1,-1.28,56.5,-1.19
OR8D4 (GeneID 338662),2,-0.646,69,-0.497
OR8D4 (GeneID 338662),3,-0.105,79.8,-0.386
NEIL1 (GeneID 79661),1,-0.997,62.1,-0.695
NEIL1 (GeneID 79661),2,-0.633,69.3,-1.07
NEIL1 (GeneID 79661),3,1.43,110,0.481
MLLT1 (GeneID 4298),1,0.0355,82.6,-0.0476
MLLT1 (GeneID 4298),2,-0.788,66.2,-0.821
MLLT1 (GeneID 4298),3,-0.328,75.4,0.235
FNIP1 (GeneID 96459),1,0.0336,82.6,0.804
FNIP1 (GeneID 96459),2,-0.4,73.9,-0.44
FNIP1 (GeneID 96459),3,-1.22,57.5,-1.57
POU2F2 (GeneID 5452),1,-1.66,48.9,-1.2
POU2F2 (GeneID 5452),2,1.03,102,1.36
POU2F2 (GeneID 5452),3,-0.108,79.7,-0.147
